The M2OR odorant receptor database
Residue numbers refer to the chain shown, from its start. This is a selection; strong and weak results do not stand in their true shares. Calls are pooled over several reports, among them a noisy single-well screen. The list shows a part of the results.

Chains of the proteins cited; added tags and fusions are not shown. A change or cut given only in a name is not applied to a line headed by its entry. Chains listed by the source or under a name are the forms on record and can include a tag or linker.
UniProt Q8NGZ5: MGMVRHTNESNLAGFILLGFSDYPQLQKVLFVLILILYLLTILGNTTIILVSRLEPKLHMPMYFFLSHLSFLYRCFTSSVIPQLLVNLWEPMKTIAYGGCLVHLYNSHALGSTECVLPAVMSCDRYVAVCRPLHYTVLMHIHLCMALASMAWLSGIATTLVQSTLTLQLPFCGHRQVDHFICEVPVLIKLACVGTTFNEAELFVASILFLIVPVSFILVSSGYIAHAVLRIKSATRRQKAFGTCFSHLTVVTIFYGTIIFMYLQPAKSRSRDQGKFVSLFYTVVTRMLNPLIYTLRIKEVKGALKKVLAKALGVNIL
OR2J2, as listed by the source: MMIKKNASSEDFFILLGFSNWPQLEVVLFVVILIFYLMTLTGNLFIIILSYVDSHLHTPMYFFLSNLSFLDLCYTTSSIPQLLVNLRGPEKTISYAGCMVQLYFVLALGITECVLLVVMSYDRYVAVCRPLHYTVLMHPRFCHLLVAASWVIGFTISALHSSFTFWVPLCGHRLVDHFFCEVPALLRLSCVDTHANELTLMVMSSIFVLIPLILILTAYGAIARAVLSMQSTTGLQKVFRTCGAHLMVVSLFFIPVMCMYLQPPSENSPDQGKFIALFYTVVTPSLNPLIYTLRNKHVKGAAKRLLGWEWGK
OR2J3, as listed by the source: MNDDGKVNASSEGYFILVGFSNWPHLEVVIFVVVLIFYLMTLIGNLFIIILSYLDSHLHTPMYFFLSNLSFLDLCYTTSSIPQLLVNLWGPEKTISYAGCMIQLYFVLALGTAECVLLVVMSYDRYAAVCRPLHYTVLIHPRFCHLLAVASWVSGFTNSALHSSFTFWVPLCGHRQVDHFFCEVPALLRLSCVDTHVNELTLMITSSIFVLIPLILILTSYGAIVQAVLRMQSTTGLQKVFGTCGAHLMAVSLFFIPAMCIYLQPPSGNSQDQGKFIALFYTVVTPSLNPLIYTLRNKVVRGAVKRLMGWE
OR2J1, as listed by the source: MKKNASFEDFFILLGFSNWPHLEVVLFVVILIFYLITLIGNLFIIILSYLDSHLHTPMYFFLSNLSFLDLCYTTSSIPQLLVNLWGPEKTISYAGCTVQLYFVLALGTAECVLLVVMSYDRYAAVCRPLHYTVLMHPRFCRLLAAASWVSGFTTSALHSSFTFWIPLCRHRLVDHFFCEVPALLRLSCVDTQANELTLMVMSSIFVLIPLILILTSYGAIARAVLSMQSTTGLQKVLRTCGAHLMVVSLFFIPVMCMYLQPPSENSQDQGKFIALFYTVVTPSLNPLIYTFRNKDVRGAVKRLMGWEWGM

Assays:
Conditions in all cases: stereoisomer not certain
OR2F2 = tested on: T1, OR2F2
T1 sequence (whole entry): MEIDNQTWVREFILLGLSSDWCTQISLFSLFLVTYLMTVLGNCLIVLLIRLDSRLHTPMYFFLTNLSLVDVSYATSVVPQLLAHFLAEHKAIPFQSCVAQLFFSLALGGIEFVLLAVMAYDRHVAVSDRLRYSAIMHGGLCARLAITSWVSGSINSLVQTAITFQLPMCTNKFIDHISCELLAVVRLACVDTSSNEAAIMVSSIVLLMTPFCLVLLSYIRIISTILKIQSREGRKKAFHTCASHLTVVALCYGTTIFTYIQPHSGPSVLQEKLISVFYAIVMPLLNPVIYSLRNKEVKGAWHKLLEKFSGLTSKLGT
Summary of the method: (§1)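 Assay methods differ from source to source, frequently being transient luciferase assays in mammalian cell lines. For each receptor–molecule pair, the label responsive (active) applies when the original authors judged the measured signal statistically different from baseline, and non-responsive (inactive) applies otherwise.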

OR2G2 [1] = tested on: T2, OR2G2
T2 sequence (whole entry): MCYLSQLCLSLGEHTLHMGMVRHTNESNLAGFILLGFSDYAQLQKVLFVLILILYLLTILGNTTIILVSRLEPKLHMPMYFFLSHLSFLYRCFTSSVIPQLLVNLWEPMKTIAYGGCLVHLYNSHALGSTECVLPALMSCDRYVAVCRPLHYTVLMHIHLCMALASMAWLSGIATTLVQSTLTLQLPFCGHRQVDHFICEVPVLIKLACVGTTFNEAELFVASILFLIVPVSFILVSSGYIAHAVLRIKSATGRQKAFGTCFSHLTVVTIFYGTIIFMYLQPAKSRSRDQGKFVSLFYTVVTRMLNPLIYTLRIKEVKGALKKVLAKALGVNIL
Summary of the method: as §1

OR2G2 [2] = tested on: T3, OR2G2; remark: listed apart in the source
T3 sequence (whole entry): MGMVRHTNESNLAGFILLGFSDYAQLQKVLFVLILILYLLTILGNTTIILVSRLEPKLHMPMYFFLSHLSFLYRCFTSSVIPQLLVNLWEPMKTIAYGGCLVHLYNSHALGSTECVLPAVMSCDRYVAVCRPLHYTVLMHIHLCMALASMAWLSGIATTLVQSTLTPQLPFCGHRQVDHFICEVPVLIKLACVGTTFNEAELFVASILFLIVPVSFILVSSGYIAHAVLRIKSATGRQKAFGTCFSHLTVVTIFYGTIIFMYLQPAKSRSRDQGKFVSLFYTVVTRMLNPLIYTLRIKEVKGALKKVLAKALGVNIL
Summary of the method: as §1

OR2G3 (Homo sapiens) = biological target: T4, OR2G3 (Homo sapiens) (UniProt Q8NGZ4)
T4 sequence (whole entry): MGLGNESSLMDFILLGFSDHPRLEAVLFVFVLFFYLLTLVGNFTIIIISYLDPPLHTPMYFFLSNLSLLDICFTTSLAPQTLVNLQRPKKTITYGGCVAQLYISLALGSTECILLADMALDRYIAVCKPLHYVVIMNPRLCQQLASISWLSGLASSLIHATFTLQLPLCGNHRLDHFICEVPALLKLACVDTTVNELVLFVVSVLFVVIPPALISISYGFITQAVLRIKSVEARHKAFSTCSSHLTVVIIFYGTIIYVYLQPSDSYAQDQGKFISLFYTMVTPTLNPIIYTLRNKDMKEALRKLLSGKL
Summary of the method: as §1

OR2G3 = tested on: T5, OR2G3
T5 sequence (whole entry): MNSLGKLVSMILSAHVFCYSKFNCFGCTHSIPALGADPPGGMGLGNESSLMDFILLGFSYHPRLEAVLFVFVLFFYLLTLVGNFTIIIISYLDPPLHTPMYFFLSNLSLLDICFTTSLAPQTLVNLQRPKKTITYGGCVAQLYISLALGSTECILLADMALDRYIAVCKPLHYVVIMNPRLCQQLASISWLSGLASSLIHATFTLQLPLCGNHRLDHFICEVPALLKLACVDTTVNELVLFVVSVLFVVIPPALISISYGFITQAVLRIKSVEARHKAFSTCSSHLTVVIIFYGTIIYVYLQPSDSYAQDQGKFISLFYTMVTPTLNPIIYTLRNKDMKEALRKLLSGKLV
Summary of the method: as §1

OR2G6 (Homo sapiens) = biological target: T6, OR2G6 (Homo sapiens) (UniProt Q5TZ20)
T6 sequence (whole entry): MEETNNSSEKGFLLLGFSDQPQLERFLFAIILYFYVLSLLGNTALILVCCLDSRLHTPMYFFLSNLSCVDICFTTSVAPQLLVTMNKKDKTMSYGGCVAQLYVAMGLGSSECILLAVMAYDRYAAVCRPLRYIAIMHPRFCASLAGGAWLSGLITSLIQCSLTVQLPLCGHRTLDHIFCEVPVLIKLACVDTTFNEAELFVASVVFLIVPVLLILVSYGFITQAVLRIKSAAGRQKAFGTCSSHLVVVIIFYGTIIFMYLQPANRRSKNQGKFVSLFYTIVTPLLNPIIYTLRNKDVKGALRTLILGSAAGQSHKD
Summary of the method: as §1

OR2H1 (Homo sapiens) = biological target: T7, OR2H1 (Homo sapiens) (UniProt Q9GZK4)
T7 sequence (whole entry): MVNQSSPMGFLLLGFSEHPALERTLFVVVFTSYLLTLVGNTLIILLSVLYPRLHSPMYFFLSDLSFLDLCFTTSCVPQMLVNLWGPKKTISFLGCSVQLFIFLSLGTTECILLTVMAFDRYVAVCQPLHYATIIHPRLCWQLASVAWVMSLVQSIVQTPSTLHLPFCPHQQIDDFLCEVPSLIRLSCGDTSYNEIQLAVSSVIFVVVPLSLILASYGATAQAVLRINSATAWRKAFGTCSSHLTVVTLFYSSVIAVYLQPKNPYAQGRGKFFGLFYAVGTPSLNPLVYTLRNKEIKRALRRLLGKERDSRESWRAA
Summary of the method: as §1

OR2H2 [3] = tested on: T8, OR2H2
T8 sequence (whole entry): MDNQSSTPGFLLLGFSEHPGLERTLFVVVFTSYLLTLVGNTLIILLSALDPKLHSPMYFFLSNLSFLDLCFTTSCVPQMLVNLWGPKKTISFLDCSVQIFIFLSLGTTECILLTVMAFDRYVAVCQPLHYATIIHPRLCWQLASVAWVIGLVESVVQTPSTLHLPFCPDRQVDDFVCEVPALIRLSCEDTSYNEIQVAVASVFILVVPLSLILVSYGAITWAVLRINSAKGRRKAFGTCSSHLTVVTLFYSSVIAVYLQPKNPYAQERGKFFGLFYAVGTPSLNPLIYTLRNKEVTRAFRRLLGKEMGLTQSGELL
Summary of the method: as §1

OR2H2 [4] = tested on: T9, OR2H2; remark: listed apart in the source
T9 sequence (whole entry): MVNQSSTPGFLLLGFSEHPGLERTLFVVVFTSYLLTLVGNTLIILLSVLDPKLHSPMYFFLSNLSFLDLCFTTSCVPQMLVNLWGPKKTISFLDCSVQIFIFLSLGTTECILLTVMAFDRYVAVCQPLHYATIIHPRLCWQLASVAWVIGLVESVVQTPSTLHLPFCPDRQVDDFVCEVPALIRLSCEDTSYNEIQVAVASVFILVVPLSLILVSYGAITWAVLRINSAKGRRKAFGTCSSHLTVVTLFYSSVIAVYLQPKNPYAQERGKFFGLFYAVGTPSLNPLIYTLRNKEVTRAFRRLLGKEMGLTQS
Summary of the method: as §1

OR2J1 [5] = tested on: T10, OR2J1
T10 sequence (whole entry): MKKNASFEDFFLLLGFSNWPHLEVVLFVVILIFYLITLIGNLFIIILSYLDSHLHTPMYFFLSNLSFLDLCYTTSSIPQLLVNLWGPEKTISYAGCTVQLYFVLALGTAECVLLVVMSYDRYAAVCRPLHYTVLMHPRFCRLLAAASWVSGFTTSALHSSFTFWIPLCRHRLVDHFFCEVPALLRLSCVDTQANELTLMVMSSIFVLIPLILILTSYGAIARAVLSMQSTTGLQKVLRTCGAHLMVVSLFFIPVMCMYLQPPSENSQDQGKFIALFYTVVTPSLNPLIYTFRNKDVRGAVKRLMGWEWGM
Summary of the method: as §1

OR2J2 (Homo sapiens) = biological target: T11, OR2J2 (Homo sapiens) (UniProt O76002)
T11 sequence (whole entry): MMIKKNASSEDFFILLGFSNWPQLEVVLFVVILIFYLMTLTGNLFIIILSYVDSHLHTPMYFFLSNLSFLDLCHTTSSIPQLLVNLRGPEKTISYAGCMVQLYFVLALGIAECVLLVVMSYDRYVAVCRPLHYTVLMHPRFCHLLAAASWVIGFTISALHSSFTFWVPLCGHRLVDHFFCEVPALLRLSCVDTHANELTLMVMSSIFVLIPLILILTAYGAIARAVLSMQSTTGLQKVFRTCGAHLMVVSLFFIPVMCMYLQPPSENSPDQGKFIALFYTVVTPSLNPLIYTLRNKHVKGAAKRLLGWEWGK
Summary of the method: as §1

OR2J2 [6] = tested on: T12, OR2J2
T12 sequence (whole entry): T11 sequence (whole entry) with A218T
Summary of the method: as §1

OR2J2 [7] = tested on: T13, OR2J2; remark: listed apart in the source
T13 sequence (whole entry): T11 sequence (whole entry) with H74Y, A146V, A218T
Summary of the method: as §1

OR2J2 [8] = tested on: T14, OR2J2; remark: listed apart in the source
T14 sequence (whole entry): T11 sequence (whole entry) with H74Y, A111T, A146V
Summary of the method: as §1

OR2J3 (Homo sapiens) = biological target: T15, OR2J3 (Homo sapiens) (UniProt O76001)
T15 sequence (whole entry): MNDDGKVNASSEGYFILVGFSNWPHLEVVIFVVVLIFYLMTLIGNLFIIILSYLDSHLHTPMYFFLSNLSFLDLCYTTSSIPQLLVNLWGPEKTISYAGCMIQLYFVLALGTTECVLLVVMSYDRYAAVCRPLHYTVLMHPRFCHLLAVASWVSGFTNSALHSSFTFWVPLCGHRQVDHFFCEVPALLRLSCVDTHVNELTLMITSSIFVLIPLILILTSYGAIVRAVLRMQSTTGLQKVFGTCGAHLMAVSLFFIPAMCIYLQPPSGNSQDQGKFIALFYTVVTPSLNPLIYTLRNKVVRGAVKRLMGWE
Summary of the method: as §1

OR2G2 (Homo sapiens) = biological target: T16, OR2G2 (Homo sapiens) (UniProt Q8NGZ5)
T16 sequence (whole entry): T3 sequence (whole entry) with A24P, P167L, G236R
Summary of the method: as §1

OR2H2 (Homo sapiens) = biological target: T17, OR2H2 (Homo sapiens) (UniProt O95918)
T17 sequence (whole entry): T9 sequence (whole entry) with F30L, V48A
Summary of the method: as §1

OR2J2 [9] = tested on: OR2J2; remark: listed apart in the source
Summary of the method: as §1

OR2J1 [10] = tested on: OR2J1; remark: listed apart in the source
Summary of the method: as §1

OR2J3 = tested on: OR2J3
Summary of the method: as §1

Measured: odorant receptor agonist call

COc1ccccc1O
active: OR2J3 (Homo sapiens)
not listed: OR2G2 (Homo sapiens) | OR2H2 (Homo sapiens) | OR2J2 [9] | OR2J1 [10] | OR2J3
inactive: all other assays above

CC12C=CCC1C1CCC3CC(=O)CCC3(C)C1CC2 (stereo not given)
active: OR2J2 [7] | OR2J2 [9]
not listed: OR2J1 [10] | OR2J3
inactive: all other assays above

CC(=O)OC1CC2CCC1(C)C2(C)C (stereo not given)
not listed: OR2H2 (Homo sapiens) | OR2J2 [9] | OR2J1 [10] | OR2J3
inactive: all other assays above

CCC=CCCO
active: OR2J1 [10] | OR2J2 [7] | OR2J2 [8] | OR2J3 (Homo sapiens)
not listed: OR2G2 (Homo sapiens) | OR2H2 (Homo sapiens) | OR2J2 [9]
inactive: all other assays above

CCCCCCCCCC=O
active: OR2H2 (Homo sapiens) | OR2J3 (Homo sapiens)
not listed: OR2G2 (Homo sapiens) | OR2J2 [9] | OR2J1 [10] | OR2J3
inactive: all other assays above

c1cnccn1
active: OR2J3 (Homo sapiens)
not listed: OR2G2 (Homo sapiens) | OR2H2 (Homo sapiens) | OR2J2 [9] | OR2J1 [10] | OR2J3
inactive: all other assays above

CC(C)=CCCC(C)=CC=O
active: OR2J3 (Homo sapiens)
not listed: OR2G2 (Homo sapiens) | OR2J2 [9] | OR2J1 [10] | OR2J3
inactive: all other assays above

COC(=O)c1ccccc1O
not listed: OR2G2 (Homo sapiens) | OR2H2 (Homo sapiens) | OR2J2 [9] | OR2J1 [10] | OR2J3
inactive: all other assays above

O=C1CCCCC1
not listed: OR2J3 (Homo sapiens) | OR2G2 (Homo sapiens) | OR2H2 (Homo sapiens) | OR2J2 [9] | OR2J1 [10] | OR2J3
inactive: all other assays above

CC(=O)c1ccccc1
active: OR2J2 [7] | OR2J2 [8]
not listed: OR2J3 (Homo sapiens) | OR2G2 (Homo sapiens) | OR2H2 (Homo sapiens) | OR2J2 [9] | OR2J1 [10] | OR2J3
inactive: all other assays above

CC1=NC(C)SC1C (stereo not given)
active: OR2G3
not listed: OR2J3 (Homo sapiens) | OR2G2 (Homo sapiens) | OR2H2 (Homo sapiens) | OR2J2 [9] | OR2J1 [10] | OR2J3
inactive: all other assays above

COc1cc(C=O)ccc1O
active: OR2J2 [7] | OR2J2 [8]
not listed: OR2G2 (Homo sapiens) | OR2H2 (Homo sapiens) | OR2J2 [9] | OR2J1 [10] | OR2J3
inactive: all other assays above
